{"source": "patent US20150038427A1", "key": {"[1]": {"target": "collagen", "test": "fluorescence plate binding assay, dansyl peptide on collagen-coated wells, curve fitted to the data of FIG. 3"}, "[2]": {"target": "collagen", "test": "fluorescence plate binding assay, dansyl peptide on collagen-coated 96-well high-binding plate, ex/em 335/490 nm"}}, "note": "No constants are given. Whether binding was seen depends on the method and setting. A result given as binding can be weak or reduced; the word gives no strength.", "data": [{"binder": "GRRANAALKAGELYKSILYGC (dansyl on the N-terminal Gly (dansylglycine added to the amine terminus))", "note": "[Dansyl-…]", "values": [{"measurement": "binding", "setting": "[1]", "result": "binds"}, {"measurement": "binding", "setting": "[2]", "result": "binds"}]}]}
